# Source: PubChem BioAssay AID504784 (Drosophila RNAi Screening Center, 2011)
# Test: 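Fly genes whose silencing alters how much lipid cells keep in droplets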 (primary screen)
# Cell system: Drosophila Kc167 embryonic cells
# Reagents: long dsRNA against Drosophila genes, about 250 ng dsRNA per well
# Time to read-out: 4 days
# Conditions: cells fed 400 µM oleic acid bound to BSA
# Detection: 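Cells imaged and segmented; ratio of lipid droplet area to nuclear area, log-transformed, then normalised as a B-score over the screen; higher means more stored lipid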
# Scale: droplet/nuclear area B-score: higher = more stored lipid (overstorage)
# In all, the deposit lists about 17,000 reagents; this is an unselected part of those that have a named target and a result. 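Each column is one replicate's B-score; the combined score over replicates was not deposited, so single values may mislead.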 Reagents against one gene are numbered here. A plus sign joins genes that one reagent is predicted to hit. Reagent sequences are not shown.
The first 2 records as a preview:
target gene,reagent,"droplet/nuclear area B-score, replicate 1","droplet/nuclear area B-score, replicate 2"
CG14969 (GeneID 38415),1,-1.77,-0.561
Pen (GeneID 34338),1,0.0158,-0.742

The list itself, repeating the preview:
target gene,reagent,"droplet/nuclear area B-score, replicate 1","droplet/nuclear area B-score, replicate 2"
CG14969 (GeneID 38415),1,-1.77,-0.561
Pen (GeneID 34338),1,0.0158,-0.742
SCAP (GeneID 35529),1,2.25,-2.24
SCAP (GeneID 35529),2,3.15,0.686
CG40551 (retired record) (GeneID 5740872),1,-1.02,1.22
piwi (GeneID 34521),1,-2.22,-0.789
CG5062 (GeneID 31435),1,-2.38,-1.62
SmydA-8 (GeneID 31200),1,0.444,0.85
SmydA-8 (GeneID 31200),2,-0.348,-0.556
SmydA-8 (GeneID 31200),3,0.0921,0.294
CG14488 (GeneID 37030),1,-1.35,0.774
bnl (GeneID 42356),1,-0.178,-0.0103
bnl (GeneID 42356),2,-1.38,2.45
bnl (GeneID 42356),3,0.416,-0.276
kri (GeneID 38655),1,0.586,1.35
CG42323 (GeneID 32825),1,0.529,-0.0876
CG42323 (GeneID 32825),2,0.723,1.71
CG5172 (GeneID 32711),1,-0.541,
CG13193 (GeneID 36256),1,-0.966,0.00126
jar (GeneID 42889),1,0.0351,-0.0399
Ir76b (GeneID 40198),1,0.0281,-0.271
RpL15 (GeneID 3354918),1,-0.0123,1.95
Sou (GeneID 37382),1,0.4,1.68
Csgalnact (GeneID 36079),1,0.816,0.651
Rab3-GAP (GeneID 34626),1,-1.26,1.58
Ugt307A1 (GeneID 33993),1,0.614,-0.534
CG11249 (GeneID 40409),1,1.14,-0.12
corolla (GeneID 32739),1,-1.41,0.799
CG2182 (GeneID 40697),1,-0.112,4.16
CG6961 + CG18259,1,-0.754,1.25
CG6961 + CG18259,2,-0.0135,-2.71
CG18598 (GeneID 42188),1,-1.13,0.26
Paip1 (GeneID 36913),1,-1.53,3.78
tgo (GeneID 41084),1,0.0176,-0.493
